In doi:10.1101/2023.08.30.555532:
These are yes or no findings as the source states them, for the method shown. For part of these data: Binding seen in cells or lysates may run through a third protein. Some results given as binding are weak or reduced against the parent protein; the word gives no strength. Each block holds one molecule with its values, some of them ahead of it.

Sequences of proteins named here, by UniProt entry; tags and fusion partners are left off.
UniProt Q9UHP3: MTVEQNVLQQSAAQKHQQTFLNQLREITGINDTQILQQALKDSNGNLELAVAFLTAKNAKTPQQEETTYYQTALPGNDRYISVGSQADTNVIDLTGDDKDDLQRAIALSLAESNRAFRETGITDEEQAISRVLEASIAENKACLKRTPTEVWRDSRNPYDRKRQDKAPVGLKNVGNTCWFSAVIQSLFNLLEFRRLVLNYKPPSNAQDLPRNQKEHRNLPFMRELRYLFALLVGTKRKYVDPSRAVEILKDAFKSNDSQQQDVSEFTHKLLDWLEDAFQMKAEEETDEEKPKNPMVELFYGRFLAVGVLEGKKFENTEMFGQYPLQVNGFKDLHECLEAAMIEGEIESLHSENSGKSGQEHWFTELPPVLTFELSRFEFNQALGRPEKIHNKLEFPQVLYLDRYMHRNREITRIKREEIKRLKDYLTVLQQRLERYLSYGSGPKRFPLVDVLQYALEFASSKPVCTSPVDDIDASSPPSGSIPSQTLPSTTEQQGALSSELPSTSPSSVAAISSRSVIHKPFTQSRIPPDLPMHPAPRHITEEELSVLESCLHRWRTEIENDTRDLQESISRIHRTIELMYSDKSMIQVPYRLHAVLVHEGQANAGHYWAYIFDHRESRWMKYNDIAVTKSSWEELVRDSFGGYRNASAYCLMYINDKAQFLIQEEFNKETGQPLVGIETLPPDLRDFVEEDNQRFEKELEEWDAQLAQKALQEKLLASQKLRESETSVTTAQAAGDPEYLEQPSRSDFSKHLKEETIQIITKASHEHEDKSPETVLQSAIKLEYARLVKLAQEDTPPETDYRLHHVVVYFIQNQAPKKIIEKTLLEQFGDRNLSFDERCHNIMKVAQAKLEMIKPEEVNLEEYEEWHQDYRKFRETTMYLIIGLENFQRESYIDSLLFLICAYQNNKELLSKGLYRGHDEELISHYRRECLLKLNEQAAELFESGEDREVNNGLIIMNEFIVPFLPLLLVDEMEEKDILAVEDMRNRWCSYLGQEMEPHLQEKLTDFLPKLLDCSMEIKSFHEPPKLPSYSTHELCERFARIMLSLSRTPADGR

Legend:
[1] = biological target: T1, GC (endogenous, PLC-PRF-5 cells) (human (endogenous in PLC-PRF-5)) (UniProt P02774); assay: proximity ligation
T1 sequence: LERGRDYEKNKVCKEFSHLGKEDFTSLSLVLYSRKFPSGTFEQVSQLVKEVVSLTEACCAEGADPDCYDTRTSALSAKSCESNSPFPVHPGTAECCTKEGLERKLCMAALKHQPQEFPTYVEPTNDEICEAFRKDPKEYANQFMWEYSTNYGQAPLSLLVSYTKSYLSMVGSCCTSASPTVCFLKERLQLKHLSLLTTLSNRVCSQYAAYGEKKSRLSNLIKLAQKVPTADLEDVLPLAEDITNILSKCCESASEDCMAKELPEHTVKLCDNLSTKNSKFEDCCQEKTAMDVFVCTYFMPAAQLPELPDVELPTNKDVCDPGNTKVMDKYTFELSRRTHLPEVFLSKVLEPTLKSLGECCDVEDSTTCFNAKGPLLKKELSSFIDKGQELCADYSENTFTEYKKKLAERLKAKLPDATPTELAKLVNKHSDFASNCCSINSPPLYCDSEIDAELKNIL

[2] = biological target: T1, GC (endogenous, PLC-PRF-5 cells) (human (endogenous in PLC-PRF-5)); assay: co-IP
[3] = biological target: T2, DNase1L3 protein (SPR and MST) (UniProt Q13609); assay: SPR
T2 sequence: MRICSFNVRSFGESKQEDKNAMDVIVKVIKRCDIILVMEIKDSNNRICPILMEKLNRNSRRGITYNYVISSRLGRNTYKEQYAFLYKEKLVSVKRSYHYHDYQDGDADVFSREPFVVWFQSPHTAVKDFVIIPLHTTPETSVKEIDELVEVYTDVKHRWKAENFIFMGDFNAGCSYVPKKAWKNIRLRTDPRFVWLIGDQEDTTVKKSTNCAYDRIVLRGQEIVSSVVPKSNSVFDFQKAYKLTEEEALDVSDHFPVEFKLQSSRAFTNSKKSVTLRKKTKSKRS

[4] = biological target: T2, DNase1L3 protein (SPR and MST); assay: MST
[5] = biological target: T1, GC (endogenous, PLC-PRF-5 cells) (human (endogenous in PLC-PRF-5)); assay: proximity ligation; remark: listed apart in the source
[6] = biological target: T1, GC (endogenous, PLC-PRF-5 cells) (human (endogenous in PLC-PRF-5)); assay: co-IP; remark: listed apart in the source

binding [1]: binds
binding [2]: binds
Molecule: USP25 (from UniProt Q9UHP3 1-1055) (enzyme)

binding [3]: binds
binding [4]: binds
B1: GC protein (SPR and MST) (protein, UniProt P02774 17-474)
chain: T1 sequence

binding [5]: binds
binding [6]: binds
B2: DNase1L3 (endogenous, PLC-PRF-5 cells) (enzyme, UniProt Q13609 21-305)
chain: T2 sequence
